PubChem BioAssay AID1508588 | Peter MacCallum Cancer Centre – 2020

Test: 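Knock-downs boosting vemurafenib effects on melanoma cell growth or lactate release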 (primary screen)
System: human WM266.4 melanoma cells (BRAF V600 mutant)
Knock-down reagent: siRNA pool against human genes, 40 nM
Duration: 96 h from transfection to read-out
Treatment: vemurafenib 300 nM (about IC25), added 48 h after transfection, for 48 h; comparison arm got DMSO vehicle only
Measurement: 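Cell gain (DAPI nuclei at end minus before drug, mean of two replicates) and medium lactate by absorbance per cell, both as ratio to non-targeting siRNA, also grouped into fold-change classes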
Reading the numbers: cell gain with vemurafenib: higher = more cell gain than with non-targeting siRNA; lactate per cell with vemurafenib: higher = more lactate made per cell
Call rule: 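a knock-down counts as enhancing when its fold-change classes with vehicle and with vemurafenib, taken together, show a stronger drug effect on cell gain or lactate per cell; exact class pairs not stated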
Calls: active = enhances vemurafenib effect; inactive = no enhancement seen
The deposit covers about 18,000 reagents; this is an unselected part. In the full data, 790 (4.4%) were called active. 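Calls rest on a combination of fold-change classes in drug and vehicle arms, not all shown here.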 Unmarked entries are inactive. Reagent sequences are not shown.

Target gene	cell gain with vemurafenib	lactate per cell with vemurafenib
TGFA (transforming growth factor alpha)	0.77	0.36
MTAP (methylthioadenosine phosphorylase)	0.7	0.5
OR5M10 (olfactory receptor family 5 subfamily M member 10)	0.7	1.17
FYN (FYN proto-oncogene, Src family tyrosine kinase)	0.81	0.94
LOXL1 (lysyl oxidase like 1)	0.23	0.48
BAK1 (BCL2 antagonist/killer 1)	0.57	0.54
ZNF30 (zinc finger protein 30)	0.74	0.26
FRA10AC1 (FRA10A associated CGG repeat 1)	0.6	1.31
CYB561 (cytochrome b561)	0.85	0.64
SLC16A3	0.14	1.52
PCNT (pericentrin)	0.07	2.02
CLIC3 (CLIC family member 3)	0.32	1.94
CHST13 (carbohydrate sulfotransferase 13)	0.85	0.81
BIRC5 (baculoviral IAP repeat containing 5)	-0.11	1.4
GRK3 (G protein-coupled receptor kinase 3)	0.95	0.87
UCMA (upper zone of growth plate and cartilage matrix associated)	0.36	0.97
ATP6V1G3 (ATPase H+ transporting V1 subunit G3)	0.88	1.12
ARMC1 (armadillo repeat containing 1)	0.82	0.48
NAA25 (N-alpha-acetyltransferase 25, NatB auxiliary subunit)	0.5	0.92
GABRA5 (gamma-aminobutyric acid type A receptor subunit alpha5)	0.4	0.83
KRTAP12-4 (keratin associated protein 12-4)	0.56	0.84
RINL (Ras and Rab interactor like)	1	0.6
PCDHB4 (protocadherin beta 4)	1.07	0.93
WASHC4 (WASH complex subunit 4)	0.07	1.12
HAO2 (hydroxyacid oxidase 2)	0.33	0.9
UBE2D3 (ubiquitin conjugating enzyme E2 D3)	0.13	0.74
LIN37 (lin-37 DREAM MuvB core complex component)	0.47	1.06
CEP15 (centrosomal protein 15)	0.3	1.01
TCEAL1 (transcription elongation factor A like 1)	0.82	0.69
ZNF774 (zinc finger protein 774)	1.19	0.61

Reprinted from the entries so far (12 entries):
Target gene	cell gain with vemurafenib	lactate per cell with vemurafenib
ARMC1 (armadillo repeat containing 1)	0.82	0.48
NAA25 (N-alpha-acetyltransferase 25, NatB auxiliary subunit)	0.5	0.92
GABRA5 (gamma-aminobutyric acid type A receptor subunit alpha5)	0.4	0.83
KRTAP12-4 (keratin associated protein 12-4)	0.56	0.84
RINL (Ras and Rab interactor like)	1	0.6
PCDHB4 (protocadherin beta 4)	1.07	0.93
WASHC4 (WASH complex subunit 4)	0.07	1.12
HAO2 (hydroxyacid oxidase 2)	0.33	0.9
UBE2D3 (ubiquitin conjugating enzyme E2 D3)	0.13	0.74
LIN37 (lin-37 DREAM MuvB core complex component)	0.47	1.06
CEP15 (centrosomal protein 15)	0.3	1.01
TCEAL1 (transcription elongation factor A like 1)	0.82	0.69

Continued:
Target gene	cell gain with vemurafenib	lactate per cell with vemurafenib
FAM186B (family with sequence similarity 186 member B)	0.98	0.72
CCL11 (C-C motif chemokine ligand 11)	1.08	0.99
KMO (kynurenine 3-monooxygenase)	0.25	1.44
ARRDC3 (arrestin domain containing 3)	0.22	1.39
ACTR10 (actin related protein 10)	0.67	1.07
ZNF175 (zinc finger protein 175)	1.07	0.52
SLC2A4RG (SLC2A4 regulator)	0.33	1.14
PPP1R36 (protein phosphatase 1 regulatory subunit 36)	0.43	0.82
FIZ1 (FLT3 interacting zinc finger 1)	1.01	1.33
FOXN2 (forkhead box N2)	0.93	0.65
MAB21L1 (mab-21 like 1)	0.14	2.09
OR2J2 (olfactory receptor family 2 subfamily J member 2)	0.03	0.41
LRRC26 (leucine rich repeat containing 26)	1.14	0.6
CST9L (cystatin 9 like)	0.21	1.23
HS6ST1 (heparan sulfate 6-O-sulfotransferase 1)	0.49	1.92
DEFB105A (defensin beta 105A)	0.43	0.92
COMMD4 (COMM domain containing 4)	0.85	0.39
ARG1 (arginase 1)	0.87	1.49
ELP2 (elongator acetyltransferase complex subunit 2)	0.73	0.42
KLF2 (KLF transcription factor 2)	0.59	1.36
RPS6KB1 (ribosomal protein S6 kinase B1)	0.28	1.54
PAXX (PAXX non-homologous end joining factor)	0.47	1.07
MYADM (myeloid associated differentiation marker)	0.72	1.12
IQGAP3 (IQ motif containing GTPase activating protein 3)	0.54	0.98
TNFRSF8 (TNF receptor superfamily member 8)	0.91	0.28
KCTD6 (potassium channel tetramerization domain containing 6)	0.85	1.31
C12orf57 (chromosome 12 open reading frame 57)	0.63	0.93
TNFRSF12A (TNF receptor superfamily member 12A)	0.99	0.63
WAC (WW domain containing adaptor with coiled-coil)	0.45	1.53
ABCC8 (ATP binding cassette subfamily C member 8)	0.26	0.21
CMTM2 (CKLF like MARVEL transmembrane domain containing 2)	0.82	0.5
TOR2A (torsin family 2 member A)	0.2	1.95
SAMD9L (sterile alpha motif domain containing 9 like)	0.78	0.62
RPL36 (ribosomal protein L36)	-0.05	1.9
GTF2IRD2B (GTF2I repeat domain containing 2B)	0.71	0.82
CDC42BPB (CDC42 binding protein kinase beta)	0.8	0.61
CLRN3 (clarin 3)	0.85	0.52
MOBP (myelin associated oligodendrocyte basic protein)	0.33	0.46
MB (myoglobin)	0.54	0.84
NUP107 (nucleoporin 107)	0.32	2.55
AZIN1 (antizyme inhibitor 1)	0.55	0.78
PNPLA3	0.73	0.38
CLPP	0.63	1.13
AK7 (adenylate kinase 7)	0.98	1.09
RASGEF1C (RasGEF domain family member 1C)	0.29	1.4
FZD7 (frizzled class receptor 7)	0.22 (active)	0.41
H2BC7 (H2B clustered histone 7)	0.76	0.99
ELMOD3 (ELMO domain containing 3)	0.35	0.24
PRRG1 (proline rich and Gla domain 1)	0.9	0.75
FAM9B (family with sequence similarity 9 member B)	1.07 (active)	0.3
ESAM (endothelial cell adhesion molecule)	0.47	1.04
ZNF77 (zinc finger protein 77)	0.3	1.25
SPAST (spastin)	0.16	1.25
GDI2 (GDP dissociation inhibitor 2)	0.71	0.9
